Results: PubChem BioAssay AID1671190 (National Center for Advancing Translational Sciences (NCATS), 2021)
Out of some 580,000 compounds screened, about 6,100 (1.1%) were called active. Inconclusive results, whose numbers are uncertain, are shown with a selection of clear calls. The call rests on the fitted dose curve; in most records, active means well fitted inhibition curve with a large enough effect; inconclusive means small, poorly fitted or top-dose-only effect, or another doubt; inactive means no such curve, though single readings can be large or run the other way. A potency beside an inconclusive call is a rough fit, not a confirmed value.

The chains behind the UniProt entries cited, without tags or fusion partners. Where a name states a change or a piece, a line headed by the entry shows the natural chain unless it says otherwise.
UniProt P18054: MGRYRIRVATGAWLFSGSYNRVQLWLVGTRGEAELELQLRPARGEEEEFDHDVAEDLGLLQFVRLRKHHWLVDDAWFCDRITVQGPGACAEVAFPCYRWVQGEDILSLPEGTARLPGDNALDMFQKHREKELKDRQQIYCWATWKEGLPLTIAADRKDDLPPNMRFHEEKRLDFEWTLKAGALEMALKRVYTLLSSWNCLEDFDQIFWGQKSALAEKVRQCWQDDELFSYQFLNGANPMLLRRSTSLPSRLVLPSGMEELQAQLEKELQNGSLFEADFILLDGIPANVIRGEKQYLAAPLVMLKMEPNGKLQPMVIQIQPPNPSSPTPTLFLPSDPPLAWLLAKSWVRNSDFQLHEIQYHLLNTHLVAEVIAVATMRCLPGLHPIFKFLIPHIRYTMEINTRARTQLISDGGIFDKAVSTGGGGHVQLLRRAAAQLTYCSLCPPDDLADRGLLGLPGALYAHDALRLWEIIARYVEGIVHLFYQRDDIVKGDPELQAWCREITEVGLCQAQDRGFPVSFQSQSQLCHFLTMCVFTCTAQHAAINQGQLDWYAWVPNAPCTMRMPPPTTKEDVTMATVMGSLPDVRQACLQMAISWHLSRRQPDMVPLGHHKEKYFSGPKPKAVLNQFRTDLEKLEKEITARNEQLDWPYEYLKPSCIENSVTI

Target: Polyunsaturated fatty acid lipoxygenase ALOX12 (Homo sapiens) (UniProt P18054)
Experiment: Primary qHTS assay for inhibitors of human arachidonate 12S-lipoxygenase (ALOX12): Round 2
Details: purified 12hLO, xylenol orange hydroperoxide absorbance; series mostly up to 108 µM
In short: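 Hydroperoxide product was detected by ferrous iron/xylenol orange as the 573 to 405 nm absorbance ratio. Arachidonic acid at 40 uM (final) was turned over for 30 min at room temperature by 150 nM human 12hLO, pH 7.0 Hepes buffer, after 15 min compound preincubation.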
Potency means the concentration at half of the fitted maximal effect.

Row | Compound | Potency
1 | CCOc1ccc(CCNc2ccc3nnc(-c4ccccc4)n3n2)cc1OCC | inactive
2 | CCCCn1nc(C(=O)N(C)C2CCCCC2)c2ccccc2c1=O | inconclusive: 79.4 µM [inhibitor, single point]
3 | CC(C)COC(=O)/C(=C/c1ccco1)NC(=O)c1ccccc1Cl | inconclusive: 17.8 µM [inhibitor, full curve]
4 | O=C(O)CCC(=O)NC(Cc1c[nH]c2ccccc12)C(=O)O (stereo not drawn) | inactive
5 | CC1(C)C2CC=C(/C=N/NC(=S)NC3CCCCC3)C1C2 (stereo not drawn) | inconclusive: 35.5 µM [inhibitor, partial curve, poor fit]
6 | CNC(=O)[C@@H](c1ccc(Cl)cc1)N1CCC[C@H]1C(=O)N1CC[C@@H](O)C1 | inconclusive: 11.2 µM [inhibitor, full curve, poor fit]
7 | COc1cc(/C=C(/C#N)C(=O)c2ccccc2)ccc1OC(=O)c1ccc(F)cc1 | inconclusive: 35.5 µM [inhibitor, partial curve, poor fit]
8 | CC(=O)Nc1cnc(-c2ccccc2C(C)=O)cn1 | inconclusive: 112 µM [inhibitor, partial curve, poor fit]
9 | COc1ccc(C(=O)N2CCCC(Cc3ncc(C)n3Cc3ccccc3)C2)c(OC)c1 (stereo not drawn) | inactive
10 | COc1ccc(NC(=O)c2cccnc2)cc1OCC(C)C | inconclusive: 112 µM [inhibitor, single point]
11 | CCCNC(=O)CSc1ncc(-c2ccc(Br)cc2)o1 | inconclusive: 31.6 µM [inhibitor, single point]
12 | O=C(Nc1ccccc1O)c1cc(S(=O)(=O)N2CCCC2)ccc1Cl | inconclusive: 282 µM [inhibitor, partial curve, poor fit]
13 | CCOC(=O)c1cn(-c2nc(-c3ccc(Cl)c(Cl)c3)cs2)c2c(F)c(N3CCOCC3)c(F)cc2c1=O | inactive
14 | COc1ccc(CN(C(=O)c2cccc(C#N)c2)C2CC2)cc1 | inactive
15 | COC(=O)c1ccc(/C=C2/SC(=S)N(CCC(=O)NCCCN3CCOCC3)C2=O)cc1 | inconclusive: 112 µM [inhibitor, partial curve, poor fit]
16 | CSc1ccc(/C=C(/NC(=O)c2ccc(C)cc2)C(=O)Nc2cccc(C)c2)cc1 | inactive
17 | CS(=O)(=O)Cc1cccc(C(=O)Oc2ccccc2Br)c1 | inactive
18 | COc1cccc(C(=O)Oc2ccc(-c3ccc(C)cc3)cc2)c1 | inconclusive: 0.224 µM [inhibitor, full curve, poor fit]
19 | Cc1nc(NC(=O)CSc2nc3ccccc3s2)sc1C(=O)N(C)C | active: 39.8 µM
20 | O=C(C[C@@H]1C/C=C\C[C@H](NC(=O)OCC2c3ccccc3-c3ccccc32)C(=O)OC[C@H]2CCCN2C1=O)N[C@H](CO)Cc1ccccc1 | inconclusive: 63.1 µM [inhibitor, partial curve, poor fit]
21 | c1ccc(-c2nc3ccccc3s2)cc1 | inconclusive: 44.7 µM [inhibitor, partial curve, poor fit]
22 | O=C1CCCC(=O)C1C(=O)c1ccc(C(F)(F)F)cc1[N+](=O)[O-] | inconclusive: 44.7 µM [inhibitor, partial curve, poor fit]

Row | Compound | Potency
23 | COc1ccc(OCC(=O)NNC(=O)Cn2c(=O)cnc3ccccc32)cc1 | inactive
24 | Cc1noc(C)c1-c1ccc2ncnc(Nc3ccc(F)cc3)c2c1 | inconclusive: 39.8 µM [inhibitor, partial curve]
25 | COc1ccc(CN(C(=O)c2ccc(Cl)cc2F)C2CC2)c(OC)c1 | inactive
26 | O=C(Cn1nc(CNc2ccc(Cl)cc2)[n+]2c1CCCCC2)c1ccc(Br)cc1 | inconclusive: 70.8 µM [inhibitor, partial curve, poor fit]
27 | CN(C)c1cc(N2CCCC(NC(=O)c3ccc(C#N)cc3)C2)ncn1 (stereo not drawn) | inactive
28 | Cc1noc(C(=O)NCc2cccnc2)c1Cl | inconclusive: 3.16 µM [inhibitor, full curve, poor fit]
29 | COc1cccc(NC(=O)c2cc3c(=O)n4cccc(C)c4nc3n2Cc2ccccc2)c1 | inactive
30 | Cc1cc(C)n2c(Nc3ccc4c(c3)OCCO4)c(-c3ccc(C)o3)nc2n1 | inconclusive: 31.6 µM [inhibitor, single point]
31 | O=C(N/N=C/C=C/c1ccccc1)C1CC1(c1ccccc1)c1ccccc1 (stereo not drawn) | inactive
32 | CCC1(C)CC(C(N)=S)CCO1 (stereo not drawn) | active: 8.91 µM
33 | COCCN[C@@H]1C[C@@H]2c3[nH]c4ccccc4c3C[C@@H](C(=O)OC)N2[C@H](c2ccc(Cl)c(F)c2)C1 | inconclusive: 50.1 µM [inhibitor, partial curve]
34 | O=C(/C(N=Nc1cccc(C(F)(F)F)c1)=C(/O)c1cccs1)C(F)(F)F | inconclusive: 100 µM [inhibitor, single point]
35 | CCOC(=O)Cc1csc(SCC(=O)Nc2cccc(Cl)c2)n1 | inactive
36 | COc1cc(NC(=S)Nc2ccccn2)cc(OC)c1 | active: 31.6 µM
37 | Cc1ccccc1C(OCC(O)CN1CCN(CCO)CC1)c1ccccc1 (stereo not drawn) | inconclusive: 0.355 µM [inhibitor, full curve, poor fit]
38 | O=C(CCS(=O)(=O)c1cc2c3c(c1)CCN3C(=O)CC2)Nc1ccc(F)c(Cl)c1 | active: 14.1 µM
39 | C[C@H]1CN([C@@H](C)CO)C(=O)c2cc(-c3cccc(C#N)c3)cnc2O[C@H]1CN(C)C(=O)c1ccccn1 | inconclusive: 3.55 µM [inhibitor, full curve, poor fit]
40 | O=S(=O)(c1ccc(NC(=S)N/N=C/c2ccc(O)c(O)c2)cc1)N1CCOCC1 | inconclusive: 50.1 µM [inhibitor, partial curve, poor fit]
41 | O=C(Nc1ccccc1)c1cn(CCBr)cn1 | inconclusive: 31.6 µM [inhibitor, partial curve, poor fit]
42 | Cc1ccccc1C(=O)OCC(=O)NCc1ccco1 | inconclusive: 44.7 µM [inhibitor, partial curve, poor fit]
43 | CCN(CC)C(=O)c1cccc(NC(=O)Cc2nc(-c3ccccc3)oc2C)c1 | inconclusive: 0.562 µM [inhibitor, full curve, poor fit]

Compounds 22 through 30, reprinted for reference:
Row | Compound | Potency
22 | O=C1CCCC(=O)C1C(=O)c1ccc(C(F)(F)F)cc1[N+](=O)[O-] | inconclusive: 44.7 µM [inhibitor, partial curve, poor fit]
23 | COc1ccc(OCC(=O)NNC(=O)Cn2c(=O)cnc3ccccc32)cc1 | inactive
24 | Cc1noc(C)c1-c1ccc2ncnc(Nc3ccc(F)cc3)c2c1 | inconclusive: 39.8 µM [inhibitor, partial curve]
25 | COc1ccc(CN(C(=O)c2ccc(Cl)cc2F)C2CC2)c(OC)c1 | inactive
26 | O=C(Cn1nc(CNc2ccc(Cl)cc2)[n+]2c1CCCCC2)c1ccc(Br)cc1 | inconclusive: 70.8 µM [inhibitor, partial curve, poor fit]
27 | CN(C)c1cc(N2CCCC(NC(=O)c3ccc(C#N)cc3)C2)ncn1 (stereo not drawn) | inactive
28 | Cc1noc(C(=O)NCc2cccnc2)c1Cl | inconclusive: 3.16 µM [inhibitor, full curve, poor fit]
29 | COc1cccc(NC(=O)c2cc3c(=O)n4cccc(C)c4nc3n2Cc2ccccc2)c1 | inactive
30 | Cc1cc(C)n2c(Nc3ccc4c(c3)OCCO4)c(-c3ccc(C)o3)nc2n1 | inconclusive: 31.6 µM [inhibitor, single point]
